From paper PMC4513902 (Journal of Radioanalytical and Nuclear Chemistry, 2013) come the findings set out here.

This series can be described thus: general procedure: Fmoc solid-phase peptide synthesis; Rink Amide MBHA resin, substitution 0.69 mmol/g; N-hydroxybenzotriazole/Diisopropylcarbodiimide/DIPEA; HATU/DIPEA for HYNIC-BOC. Particulars: whole synthesis.

In the case of “[HYNIC-D-Tyr^5-D-Tyr^6-D-Phe^13] BB (5–14)”, the “final HPLC purity” value (analytic RP-HPLC, LC/MSD) is given as >99%. Under “overall”, the isolated yield entry was “nearly 47%”.
